Data as given in PubChem BioAssay AID743454 (Peter MacCallum Cancer Centre, 2014).
Screen: 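Genes whose loss kills vorinostat-resistant colon cancer cells under vorinostat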 (primary screen). System: human HCT116-VR colon cancer cells, selected for vorinostat resistance. Knock-down reagent: siRNA pool against human genes, 40 nM siRNA pool. Time to read-out: vorinostat for 24 h, read-out about 72 h after transfection. Conditions: vorinostat at 2.5 µM final. Detection: 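Cell viability by CellTiter-Fluor and caspase 3/7 activity by luminescence, each scaled to mock wells per plate, duplicates averaged, then robust z-scored over all plates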. Scale: viability robust z-score: higher = more viable cells than screen typical; caspase robust z-score: higher = more caspase 3/7 activity than screen typical. Hit rule: 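a knock-down is a hit when classed RV1 or RV2 for lowered viability, or CA1 or CA2 for caspase activation; those lethal without drug were dropped; hits were retested singly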.
The deposit covers about 18,000 reagents; below is an unselected part. 450 of all reagents (2.5%) count as active. 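Single biological run; no consistent viability z cut-off exists, so the class columns, not z-scores, define the calls.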

Target gene	viability hit class	caspase hit class	viability robust z-score	caspase robust z-score	Outcome
BOP1 (BOP1 ribosomal biogenesis factor)	no change	no change	-0.58	2.47	inactive
TFDP1 (transcription factor Dp-1)	no change	no change	-0.71	1.88	inactive
HSPB8 (heat shock protein family B (small) member 8)	no change	no change	-0.08	-0.09	inactive
DMXL1 (Dmx like 1)	no change	no change	0.32	-0.55	inactive
SMG6 (SMG6 nonsense mediated mRNA decay factor)	no change	no change	0.34	1.17	inactive
EDN2 (endothelin 2)	no change	no change	0.14	1.46	inactive
SNRNP25 (small nuclear ribonucleoprotein U11/U12 subunit 25)	no change	no change	-1.47	-0.38	inactive
COX18 (cytochrome c oxidase assembly factor COX18)	no change	no change	0.28	-0.01	inactive
OR14K1 (olfactory receptor family 14 subfamily K member 1)	no change	no change	0	-0.87	inactive
DMAC1 (distal membrane arm assembly component 1)	no change	no change	0.47	-0.61	inactive
PDPR (pyruvate dehydrogenase phosphatase regulatory subunit)	no change	no change	-0.39	-0.37	inactive
SF3A1 (splicing factor 3a subunit 1)	no change	no change	-3.91	1.76	inactive
HNRNPM (heterogeneous nuclear ribonucleoprotein M)	no change	no change	-1.56	2.53	inactive
GPN2 (GPN-loop GTPase 2)	no change	no change	-0.35	0.54	inactive
CEBPD (CCAAT enhancer binding protein delta)	no change	no change	-2.9	-0.91	inactive
HAGH (hydroxyacylglutathione hydrolase)	no change	no change	0.14	1.75	inactive
NPS (neuropeptide S)	no change	no change	0.31	0.58	inactive
KRTAP3-1 (keratin associated protein 3-1)	no change	no change	-0.64	1.18	inactive
DDX11 (DEAD/H-box helicase 11)	no change	no change	-0.45	1.4	inactive
METTL9 (methyltransferase 9, His-X-His N1(pi)-histidine)	no change	no change	1.24	1.06	inactive
ACTBL2 (actin beta like 2)	no change	no change	0.72	-0.35	inactive
BEGAIN (brain enriched guanylate kinase associated)	no change	CA1 (caspase activation)	0.45	6.15	active
CHPF (chondroitin polymerizing factor)	no change	no change	0.98	0.02	inactive
STAM (signal transducing adaptor molecule)	no change	no change	1.78	1.16	inactive
ITIH6 (inter-alpha-trypsin inhibitor heavy chain family member 6)	no change	no change	0.02	-0.7	inactive
PHLPP1 (PH domain and leucine rich repeat protein phosphatase 1)	no change	no change	1.25	-0.4	inactive
CRYAB (crystallin alpha B)	no change	no change	-0.7	1.19	inactive
UFSP2 (UFM1 specific peptidase 2)	no change	no change	0.24	-0.39	inactive
RIPK3 (receptor interacting serine/threonine kinase 3)	no change	no change	-0.82	-0.34	inactive
CSKMT (citrate synthase lysine methyltransferase)	no change	no change	0.32	-0.63	inactive
TIGD3 (tigger transposable element derived 3)	no change	no change	-1.35	0.7	inactive
RIPPLY2 (ripply transcriptional repressor 2)	no change	no change	0.24	-0.72	inactive
ITGAE (integrin subunit alpha E)	no change	no change	0.9	-0.08	inactive
TXK (TXK tyrosine kinase)	no change	no change	-0.01	-0.94	inactive
HDHD3 (haloacid dehalogenase like hydrolase domain containing 3)	no change	no change	-0.7	0.78	inactive
SYT16 (synaptotagmin 16)	no change	no change	0.08	-0.4	inactive
TEX26 (testis expressed 26)	no change	no change	-0.52	-1.21	inactive
CIB3 (calcium and integrin binding family member 3)	no change	no change	-0.75	1.36	inactive
AGAP6 (ArfGAP with GTPase domain, ankyrin repeat and PH domain 6)	no change	no change	-0.46	-0.14	inactive
